No constants are given. Whether binding was seen depends on the method and setting.

By UniProt entry, the sequences of proteins in these tests, tags left out. Residues count along the entry.
UniProt P0A1I3, residues 357-685: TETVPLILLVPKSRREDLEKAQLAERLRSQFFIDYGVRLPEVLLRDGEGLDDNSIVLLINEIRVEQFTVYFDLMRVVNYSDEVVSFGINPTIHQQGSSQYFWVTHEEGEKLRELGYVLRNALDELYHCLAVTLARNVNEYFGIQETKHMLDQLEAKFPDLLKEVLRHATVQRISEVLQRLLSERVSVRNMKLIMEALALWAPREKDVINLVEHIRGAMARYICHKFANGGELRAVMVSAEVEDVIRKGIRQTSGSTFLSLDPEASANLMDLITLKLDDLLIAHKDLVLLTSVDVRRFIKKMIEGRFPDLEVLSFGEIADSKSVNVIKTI

Results on two substances are retold here after paper PMC8635156, “Structural and Functional Analysis of SsaV Cytoplasmic Domain and Variable Linker States in the Context of the InvA-SsaV Chimeric Protein” (Microbiology Spectrum, 2021).

The target in experiment [1] is InvA cytoplasmic domain (InvAC) (Salmonella enterica serovar Typhimurium) (UniProt P0A1I3). Briefly: dynamic light scattering; DynaPro NanoStar, cuvette; 0.5 mg/ml protein in 20 mM Tris-HCl pH 8.0, 150 mM NaCl; 25 °C; both purified.
The target is the same in experiment [2]. The experiment is described as follows: SEC; gel filtration of purified cytoplasmic domains (Superdex 200 Increase 10/300 GL; 20 mM Tris-HCl pH 8.0, 150 mM NaCl); Fig. 1B at two salt concentrations (physiological and high salt); Fig. 4D wild type and variants; both purified.
For experiment [3], the target named is SsaVCN4 (deletion of M346-V347-P348-G349) (Salmonella enterica serovar Typhimurium) (UniProt P74856). The experiment is described as above.

As for “InvA cytoplasmic domain (InvAC) (from UniProt P0A1I3 357-685) (domain or fragment)”, the binding result is listed as “no binding (tested: 0.5 mg/ml)” in experiment [1] and “no binding” in experiment [2]. Turning to “SsaVCN4 (deletion of M346-V347-P348-G349) (from UniProt P74856 346-681) (domain or fragment)”, the binding result in experiment [3] is recorded as “no binding”.
